In paper PMC6985235:
Results are given in words; binding and its absence hold for the method and conditions named. For some of these results: In cells and extracts the contact can be indirect. Some results given as binding are weak or reduced against the parent protein; the word gives no strength.

Chains of the proteins cited; added tags and fusions are not shown.
UniProt A2DLL4: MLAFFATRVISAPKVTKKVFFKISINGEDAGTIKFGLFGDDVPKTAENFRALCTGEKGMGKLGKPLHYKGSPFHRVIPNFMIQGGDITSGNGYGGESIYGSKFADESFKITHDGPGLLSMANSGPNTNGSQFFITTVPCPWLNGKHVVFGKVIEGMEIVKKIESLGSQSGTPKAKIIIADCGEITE

How the values were obtained:
[1] = target: HA-TvCyP1 (Trichomonas vaginalis) (UniProt A2DT06); assay: co-IP; total lysates of T. vaginalis overexpressing the HA-tagged protein (1% TritonX-100 in PBS), agarose-conjugated anti-HA antibody, 4 °C overnight; Western blot
[2] = target: GST-TvCyP1 (Trichomonas vaginalis) (UniProt A2DT06); assay: pull-down; GST pull-down: 30 picomoles of GST or GST-fusion protein on 20 μl glutathione beads with 35 nM His-tagged protein in 1 ml TEN200 (1 mM EDTA, 200 mM NaCl, 20 mM Tris-HCl pH 7.4), 4 °C overnight; washes with 0.1% TritonX-100; anti-6xHis Western blot; in Fig. 3D also with DMSO or 5 μM cyclosporine A (binding greatly diminished); both purified
[3] = target: GST-TvCyP1(R63A) (Trichomonas vaginalis) (UniProt A2DT06); assay: as above
[4] = target: HA-TvCyP2 (Trichomonas vaginalis) (UniProt A2DLL4); assay: co-IP; total lysates of T. vaginalis overexpressing the HA-tagged protein (1% TritonX-100 in PBS), agarose-conjugated anti-HA antibody, 4 °C overnight; Western blot

TvCyP2 (endogenous) (from UniProt A2DLL4 1-186) (enzyme)
binding [1]: binds

His-TvCyP2 (from UniProt A2DLL4 1-186) (enzyme)
binding [2]: binds | binding [3]: binds

TvCyP1 (endogenous) (from UniProt A2DT06 1-173) (enzyme)
binding [4]: binds
